Laboratory results taken from PubChem BioAssay AID493014 (National Center for Advancing Translational Sciences (NCATS), 2011).
Hit rate of the full screen: of about 340,000 compounds, about 170 (0.05%) were called active. The inconclusive results got no clear call from the source; some entries with a clear call stand among them for comparison. Calls follow the shape of the dose curve; as a rule, active = well fitted inhibition curve with a large enough effect in the signal ratio, with a control signal flat (not every such curve was filed as active); inconclusive = small, poorly fitted or top-dose-only effect, or effect the other way, or a change in a side signal; inactive = flat fitted curve, though single readings scatter; the % refers to the signal ratio. Where the call is inconclusive, the potency comes from a doubtful curve fit.

Experiment: qHTS Assay to Find Inhibitors of Chronic Active B-Cell Receptor Signaling;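 as to activity change, negative = inhibition: plate controls were basal doxycycline-induced cells for no effect and cells given 10 µM MG132 for full effect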
Details: ABC-DLBCL IkBa-CBG/CBR reporter, luminescence ratio (green luciferase fused to IkBa over red control in TMD8 lymphoma cells), 4 h; activity change, negative = inhibition: at 46.1 µM (top of the series)
Summary of the method: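 Doxycycline induced both beetle luciferases in TMD8 lymphoma cells; IKK-driven degradation limits the IkappaBalpha-fused green signal, while red luminescence normalises for cell number and nonspecific effects. Compounds tested up to 46 uM, 4 hrs.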
Potency is read from the fitted curve at half-maximal effect.

SMILES	activity change, negative = inhibition	Potency
CC1(C)CC(=O)C2=C(C1)c1c(ccc3ccccc13)NC2c1ccc(OCC(=O)O)cc1 (stereo not drawn)	inconclusive: 6.55%	
Cc1ccccc1NC(=S)N(Cc1ccco1)C(C)c1ccccn1 (stereo not drawn)	inactive	
O=C(COc1ccc(Cl)cc1)Nc1cc(S(=O)(=O)N2CCCCC2)ccc1N1CCCCC1	inactive	
CC(C)OC(=O)NCCOC(=O)Nc1cccc(Cl)c1	inconclusive: 8.21%	
O=C(Nc1ccc(Cl)c([N+](=O)[O-])c1)c1ccc2c(c1)OCCO2	inconclusive: -22.3%	
Cc1ccc(-c2nn(-c3ccccc3)cc2CO)o1	inconclusive: 10.3%	
Cc1cc(NC2CCCCC2)nc2ccccc12		inconclusive: 22.4 µM [falling, single point]
Cc1ccc(NC(=O)C2CCN(c3ncnc4c3nc3n4CCCCC3)CC2)nc1		inconclusive: 11.2 µM [falling, partial curve]
Cc1ccc(C)c(OCC(=O)NCC(C)(C)N2CCOCC2)c1	inconclusive: 5.46%	
CCCCN(C)C(=O)C1CCN(CCCc2ccccc2)CC1	inconclusive: 3.68%	
CCCc1ccc(OCC(=O)NNC(=S)NC(=O)c2ccco2)cc1	inconclusive: -26%	
COC(C(=O)N1CCC(CCC(=O)Nc2ccccc2)CC1)c1ccccc1 (stereo not drawn)	inactive	
COc1ccc(-c2cc(C(=O)O)nc3ccc4ccccc4c23)cc1OC		inconclusive: 35.5 µM [cytotoxic, single point]
C(=N\Nc1nc(-c2ccccc2)cs1)/c1cccnc1		inconclusive: 29.1 µM [falling, single point]
Nc1c(Cl)cc(-c2csc(NCCc3nc4cc(Cl)c(Cl)cc4n3CCCO)n2)cc1Cl	inactive	
Cc1ccccc1C(=O)Nc1ccc2c(C#N)c3nc4ccccc4nc3n2c1	inactive	
O=C(c1cc2nc(C3CC3)cc(C(F)F)n2n1)N1CCOCC1	inconclusive: 4.13%	
O=C(C1CC(c2ccc(F)cc2)=NO1)N1CCCCC1 (stereo not drawn)		inconclusive: 18.4 µM [falling, single point]
COC(=O)C(NC(=O)c1cccnc1Cl)C(C)C (stereo not drawn)	inconclusive: 3.41%	
CCC(=O)N(CCN1CCOCC1)Cc1cc2cc3c(cc2nc1Cl)OCO3	inconclusive: 0.512%	
CC1CCN(S(=O)(=O)c2ccc(Oc3ccc([N+](=O)[O-])cc3)cc2)CC1	inactive	

SMILES	activity change, negative = inhibition	Potency
COc1ccc(-c2ncncc2-c2ccc(OC)c(OC)c2)c(O)c1		inconclusive: 17.8 µM [falling, partial curve, poor fit]
COC(=O)[C@H](Cc1ccc(O)cc1)NC(=O)Cn1cnc2c(NCc3ccccc3)ncnc21	inconclusive: -1.19%	
CC1=CC(C)(C)N(C(=O)CSc2nncn2C)c2ccccc21	inactive	
CCOc1ccc2nc(N=NC3=C(O)CC(C)(C)CC3=O)sc2c1	inactive	
C=CCn1c(C)c(C(C)=O)c(N2CCN(C(c3ccccc3)c3ccccc3)CC2)nc1=S	inactive	
Clc1cncc(Cl)c1N/N=C/c1ccccc1		inconclusive: 17.8 µM [falling, single point]
COc1ccc(N2CCC(CNC(=S)Nc3ccc(C)cc3C)C2)cc1 (stereo not drawn)	inactive	
COC(=O)[C@]1(Cc2ccccc2)N[C@H](CN(C)C(=O)Nc2ccc(Cl)cc2)[C@@H]2C(=O)N(Cc3ccccc3)C(=O)[C@@H]21	inactive	
CC1(C)CC(NCCN2CCN(C3=CC(=C(C#N)C#N)CC(C)(C)C3)CC2)=CC(=C(C#N)C#N)C1	inactive	
CCOC(=O)N1CCC(NC(=O)c2ccc3c(c2)N(C)CCS3)CC1	inactive	
CCOCc1nnc(NC(=O)c2cccc(OC)c2)s1	inconclusive: -9.04%	
Cn1cnnc1SCC(=O)Nc1ccc2ccccc2c1	inconclusive: 6.22%	
COc1cccc(/C=C2\SC(=S)N(CCCC(=O)Nc3ccc(C(=O)O)cc3)C2=O)c1		inconclusive: 7.08 µM [falling, partial curve]
O=C(NC(=S)Nc1nc(-c2cccc([N+](=O)[O-])c2)cs1)c1cc(Cl)ccc1Cl	inactive	
O=C(CSc1nnc(-c2ccc3c(c2)OCO3)o1)Nc1ncc(Cl)cc1Cl	inconclusive: -0.718%	
O=C(CN1C(=O)/C(=C\c2cccc(Br)c2)Oc2ccccc21)NCCCN1CCOCC1	inconclusive: 13.9%	
O=C(NNc1ccccc1)Nc1ccccc1F		inconclusive: 12.6 µM [falling, partial curve]
COc1ccc(CNC(=O)C/C(C)=N/NC(=O)c2cnccn2)cc1		inconclusive: 8.91 µM [falling, partial curve, poor fit]
COc1ccccc1C(=O)NC(=S)/C=C1/N(C)c2ccccc2C1(C)C	inactive	
COC(=O)c1cnc(NNS(=O)(=O)c2ccc(Cl)cc2)nc1C(F)(F)F	inconclusive: -16.4%	
CCOC(=O)Cc1csc(NC(=O)/C=C\c2ccccc2)n1		inconclusive: 3.98 µM [falling, full curve]

SMILES	activity change, negative = inhibition	Potency
CC1CCN(C(=O)c2ccc3c(c2)OCCO3)CC1	inconclusive: 0.184%	
COc1ccc(-c2nn(-c3ccccc3)cc2C(=O)N2CCOCC2)cc1	inconclusive: -25.7%	
O=C(COc1ccc([N+](=O)[O-])cc1)Nc1ccc(CN2CCOCC2)cc1	inconclusive: -22.5%	
C=CC[C@H](CC(=O)N(CCO)Cc1ccccc1)C(=O)NCCOC(=O)[C@H](CC=C)CC(=O)OC(C)(C)C	inconclusive: -0.0056%	
O=C(CCCOc1ccc(Cl)cc1Cl)N1CCCc2ccccc21		inconclusive: 1.84 µM [rising, partial curve, poor fit]
O=C(O)c1ccc(Nc2nc(-c3cc4ccccc4oc3=O)cs2)cc1O		inconclusive: 11.2 µM [falling, partial curve]
Cc1cc(OCCOCCNCc2ccccc2)ccc1C(C)C		inconclusive: 22.4 µM [falling, partial curve, poor fit]
CCCCCCCC(=O)N/N=C(/C)c1c(O)cc(C)oc1=O	inactive	
CCCc1ccc(C(=O)NNc2cc(Cl)ccc2Cl)cc1		inconclusive: 1.58 µM [falling, full curve]
CC(=O)Oc1oc(-c2ccccc2)nc1C=Nc1ccc(N(C)C)cc1	inactive	
CC(C)CN(C(=O)CSc1nn(-c2ccc(Cl)cc2)c(=S)s1)C1CCS(=O)(=O)C1 (stereo not drawn)	inconclusive: -3.5%	
O=C(NC1CCS(=O)(=O)C1)c1cccc(Cl)c1 (stereo not drawn)	inconclusive: 5.79%	
Cc1nc2ccc(S(=O)(=O)NCC(=O)Nc3ccc(F)cc3)cc2s1		inconclusive: 25.1 µM [falling, single point]
O=C(NCc1ccccc1)c1c(Cl)nc(Cl)c(Cl)c1Cl	inconclusive: -17.9%	
CCOc1ccccc1C(=O)Nc1ccsc1C(=O)OC	inconclusive: -14.2%	
Cc1ccc(OCCn2cnc3ccccc3c2=O)c([N+](=O)[O-])c1	inactive	
C/C(CC(=O)Nc1cccc(C(F)(F)F)c1)=N\NC(=O)c1ccncc1	inconclusive: -6.47%	
Cc1ccc(O)c(C(=O)c2cc(C#N)c(=O)n(Cc3ccccc3)c2)c1	inactive	
COc1ccc(CNC(=O)Cn2nc(-c3ccc4c(c3)OCCO4)ccc2=O)cc1	inconclusive: -1.68%	
O=C(O)Cc1ccc(NC(=O)C(c2ccccc2)c2ccccc2)cc1	inconclusive: 12.7%	
Cc1ccc(C(=O)Nn2cnc3ccccc3c2=O)cc1C	inconclusive: -19%	

SMILES	activity change, negative = inhibition	Potency
COc1ccc(Cl)c(Cn2c(NCc3ccco3)nc3c2c(=O)n(C)c(=O)n3C)c1	inactive	
COc1cccc(C(=O)O[C@H]2[C@H](Cc3ccccc3)NS(=O)(=O)[C@H]3C[C@@H]4C=C[C@]23O4)c1	inactive	
COc1ccc(C)cc1NC(=S)NNC(=O)c1c(Br)cnn1C	inactive	
CN(C)S(=O)(=O)n1cc(/C=C(\NC(=O)c2ccccc2)C(=O)NCCCn2ccnc2)c2ccccc21	inactive	
CCCN1Cc2cccc(C(=O)Nc3ccc(-c4nc5ccccc5[nH]4)cc3)c2C1=O	inconclusive: 3.35%	
Cc1cc(Br)ccc1SCC(=O)OCC(=O)N1CCN(C(=O)c2ccco2)CC1	inconclusive: -5.16%	
O=[N+]([O-])c1cc(-n2cnnn2)ccc1N1CCC(Cc2ccccc2)CC1	inactive	
O=C(O)CNC(=O)CC1S/C(=N/N=C2/NC(=O)CS2)NC1=O (stereo not drawn)	inactive	
O=C(COc1ccc(Br)cc1)N1CCc2ccccc21	inactive	
O=C(O)c1cccc(-n2nnnc2SCc2ccccn2)c1	inconclusive: 6.97%	
Cc1cccc(OCCNC(=O)CCNS(=O)(=O)c2ccc3ccccc3c2)c1		inconclusive: 29.1 µM [falling, single point]
CC1(C)Cc2c(sc(NC(=O)COc3ccc(Cl)cc3)c2C(N)=O)C(C)(C)N1	inactive	
CCOc1cc(Br)ccc1S(=O)(=O)N1CC(C)OC(C)C1 (stereo not drawn)	inconclusive: 0.0457%	
NC(=O)C(c1ccc(Sc2ccccc2)nn1)c1ccc(Cl)cc1Cl (stereo not drawn)	inconclusive: 11.9%	
COC(=O)c1sccc1NC(=O)Nc1cccc(C)c1C		inconclusive: 8.91 µM [falling, partial curve, poor fit]
COc1ccc(C(=O)Nc2cc3c4c(c2)C(C)C(=O)N4CCC3)c(OC)c1 (stereo not drawn)	inactive	
COc1ccc(C(=O)Nc2ccc(Nc3ccccc3)cc2)cc1[N+](=O)[O-]		inconclusive: 17.8 µM [falling, partial curve, poor fit]
COc1ccc(N(C(=O)c2ccco2)S(=O)(=O)c2cc(OC)ccc2OC)cc1	inactive	
O=C(NCc1ccco1)c1ccccc1NS(=O)(=O)c1cccs1	inconclusive: 4.77%	
Cc1ccc(-n2ncc3c(Nc4cccc(C)c4C)ncnc32)cc1	inactive	

One compound at a time (already shown).
COc1ccc(C(=O)Nc2ccc(Nc3ccccc3)cc2)cc1[N+](=O)[O-] is listed with Potency: inconclusive: 17.8 µM [falling, partial curve, poor fit]
CCCN1Cc2cccc(C(=O)Nc3ccc(-c4nc5ccccc5[nH]4)cc3)c2C1=O is listed with activity change, negative = inhibition: inconclusive: 3.35%
Cc1cccc(OCCNC(=O)CCNS(=O)(=O)c2ccc3ccccc3c2)c1 is listed with Potency: inconclusive: 29.1 µM [falling, single point]
O=C(O)CNC(=O)CC1S/C(=N/N=C2/NC(=O)CS2)NC1=O (stereo not drawn) is listed with activity change, negative = inhibition: inactive
